For this assay, the target named is T1, regulatory subunit of acetolactate synthase complex (Ilv6) (S. cerevisiae (endogenous in yeast lysate)) (UniProt P25605).
T1 sequence: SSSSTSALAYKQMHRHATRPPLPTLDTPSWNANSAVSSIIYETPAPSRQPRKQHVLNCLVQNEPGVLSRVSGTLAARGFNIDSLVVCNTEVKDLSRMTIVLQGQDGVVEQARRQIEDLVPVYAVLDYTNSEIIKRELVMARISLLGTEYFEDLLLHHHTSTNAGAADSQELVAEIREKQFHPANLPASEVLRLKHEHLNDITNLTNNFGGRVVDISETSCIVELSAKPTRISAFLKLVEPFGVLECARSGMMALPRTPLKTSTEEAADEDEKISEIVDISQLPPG
Put plainly: SEC; PROMIS: native soluble lysate of YSBN2 in logarithmic phase separated on Sepax SRT SEC-300, 50 mM AmBIC pH 7.5, 150 mM NaCl, 1.5 mM MgCl2, 4 °C; fractions analysed by LC-MS proteomics and metabolomics; co-elution (PCC ≥ 0.7) defines putative interactors.

No constants are given. Whether binding was seen depends on the method and setting. Some entries that bind do so weakly or less than the wild type.

B1: catalytic subunit of acetolactate synthase complex (Ilv2) (enzyme, UniProt P07342 91-687)
chain: GLTGGQIFNEMMSRQNVDTVFGYPGGAILPVYDAIHNSDKFNFVLPKHEQGAGHMAEGYARASGKPGVVLVTSGPGATNVVTPMADAFADGIPMVVFTGQVPTSAIGTDAFQEADVVGISRSCTKWNVMVKSVEELPLRINEAFEIATSGRPGPVLVDLPKDVTAAILRNPIPTKTTLPSNALNQLTSRAQDEFVMQSINKAADLINLAKKPVLYVGAGILNHADGPRLLKELSDRAQIPVTTTLQGLGSFDQEDPKSLDMLGMHGCATANLAVQNADLIIAVGARFDDRVTGNISKFAPEARRAAAEGRGGIIHFEVSPKNINKVVQTQIAVEGDATTNLGKMMSKIFPVKERSEWFAQINKWKKEYPYAYMEETPGSKIKPQTVIKKLSKVANDTGRHVIVTTGVGQHQMWAAQHWTWRNPHTFITSGGLGTMGYGLPAAIGAQVAKPESLVIDIDGDASFNMTLTELSSAVQAGTPVKILILNNEEQGMVTQWQSLFYEHRYSHTHQLNPDFIKLAEAMGLKGLRVKKQEELDAKLKEFVSTKGPVLLEVEVDKKVPVLPMVAGGSGLDEFINFDPEVERQQTELRHKRTGGKH
As to B1, the binding result is “binds”.

Values taken from PMC7876005 (Communications Biology, 2021).
